Assay results reported in patent US20180037644A1.
Results are given in words; binding and its absence hold for the method and conditions named. Some results given as binding are weak or reduced against the parent protein; the word gives no strength. Each block holds one binder with its values, some of them ahead of it.

Amino acid sequences for entries named in this document (tags omitted). A change or cut given only in a name is not applied to a line headed by its entry.
UniProt O95760: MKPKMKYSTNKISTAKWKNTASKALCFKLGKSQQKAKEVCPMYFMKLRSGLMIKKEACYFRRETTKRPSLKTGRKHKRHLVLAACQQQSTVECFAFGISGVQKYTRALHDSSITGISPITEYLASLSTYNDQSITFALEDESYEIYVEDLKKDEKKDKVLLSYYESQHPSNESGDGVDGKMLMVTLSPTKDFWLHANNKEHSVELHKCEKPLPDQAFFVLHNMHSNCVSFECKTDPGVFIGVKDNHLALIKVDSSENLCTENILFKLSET

Tests used:
[1] = biological target: human IL-33 WT (R&D) (human) (UniProt O95760); assay: Octet, captured on anti-Fc tip; IL-33 alone
[2] = biological target: human IL-33 WT (R&D) (human) (UniProt O95760); assay: Octet, captured on anti-Fc tip; IL-33 premixed with IL33-271 (competitor)
[3] = biological target: human IL-33 (mm2) (human) (UniProt O95760); assay: SPR (Biacore), human IL-33 (mm2) immobilized on the chip, titration series of rat 7E8 Fab in solution; panel title 'hu IL33 Mu2'

binding [1]: binds
binding [2]: binds
B1: human ST2-hIgG2Fc (Fc fusion)
chain: KFSKQSWGLENEALIVRCPRQGKPSYTVDWYYSQTNKSIPTQERNRVFASGQLLKFLPAAVADSGIYTCIVRSPTFNRTGYANVTIYKKQSDCNVPDYLMYSTVSGSEKNSKIYCPTIDLYNWTAPLEWFKNCQALQGSRYRAHKSFLVIDNVMTEDAGDYTCKFIHNENGANYSVTATRSFTVKDEQGFSLFPVIGAPAQNEIKEVEIGKNANLTCSACFGKGTQFLAAVLWQLNGTKITDFGEPRIQQEEGQNQSFSNGLACLDMVLRIADVKEEDLLLQYDCLALNLHGLRRHTVRLSRKNPSKECFVECPPCPAPPVAGPSVFLFPPKPKDTLMISRTPEVTCVVVDVSHEDPEVQFNWYVDGMEVHNAKTKPREEQFNSTFRVVSVLTVVHQDWLNGKEYKCKVSNKGLPAPIEKTISKTKGQPREPQVYTLPPSREEMTKNQVSLTCLVKGFYPSDIAVEWESNGQPENNYKTTPPMLDSDGSFFLYSKLTVDKSRWQQGNVFSCSVMHEALHNHYTQKSLSLSPGK

binding [3]: binds
B2: rat 7E8 Fab (Fab, V domains shown)
VH: EVQLVETGGGLVQPGRSLKLSCKTSGFTFSSYWMYWIRQAPGKGLEWVSSITPNGGNTYYPDSVKGRFTISRDNAENTIYLQMSSLRSEDTATYFCAKGHYYYTSYSLGYWGQGSLVTVSS
VL: EIQMTQSPSVLSASVGDRVTLSCKASQNINKHLDWYQQKLGEAPKLLIYFTNNLQTGIPSRFSGSGSGTDCTLTINSLQPGDVATYFCFQYNNGWTFGGGTKLELD
